Measured values from patent US9643952B2, “Pyridone compound” (KYOWA HAKKO KIRIN CO., LTD., priority 2012, dated 2017).
Some results were stated once for a whole list of compounds, not compound by compound.

Target: T1, human CCR10 (Homo sapiens, UniProt P46092)
T1 construct: expressed in transfected cells; host or cells: KJMGER8 cells (Namalwa cell-derived cell line); expression induced with 10 nmol/L beta-estradiol for 24 hr
T1 sequence (P46092 1-362): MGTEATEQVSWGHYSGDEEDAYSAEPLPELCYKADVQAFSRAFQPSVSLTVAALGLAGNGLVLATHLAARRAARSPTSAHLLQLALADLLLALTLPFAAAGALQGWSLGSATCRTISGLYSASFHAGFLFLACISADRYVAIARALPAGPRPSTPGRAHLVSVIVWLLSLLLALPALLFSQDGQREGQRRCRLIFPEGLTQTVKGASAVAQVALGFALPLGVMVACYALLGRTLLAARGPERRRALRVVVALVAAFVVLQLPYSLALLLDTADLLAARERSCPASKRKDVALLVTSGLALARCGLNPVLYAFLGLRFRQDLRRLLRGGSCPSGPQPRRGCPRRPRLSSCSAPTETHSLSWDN
Assay: Calcium assay of human CCR10 (CCR10 antagonistic effect, CTACK-induced increase of intracellular calcium ion concentration in hCCR10G16 cells)
Format: cell-based
Conditions: human CCR10-expressing hCCR10G16 cells, 300 nmol/L human recombinant CTACK, Fluo-3, FDSS; read-out: concentration at which the increase in the calcium ion concentration is inhibited by not less than 50%

Compound	IC50 [nM]
Cc1c(Nc2ccc(F)cc2F)c(C(=O)N2CCC(c3ccc(F)cc3)CC2)cn(C)c1=O [Compound 125, 4-(2,4-difluorophenylamino)-5-[4-(4-fluorophenyl)piperidine-1-carbonyl]-1,3-dimethylpyridin-2(1H)-one]	≤ 1000
Cc1cc(F)ccc1Nc1cc(=O)n(CC#N)cc1C(=O)N1CCC(c2ccc(F)cc2)CC1 [Compound 23, 2-{4-(4-fluoro-2-methylphenylamino)-5-[4-(4-fluorophenyl)piperidine-1-carbonyl]-2-oxopyridin-1(2H)-yl}acetonitrile]	≤ 1000
Cc1ccc(Cl)cc1Nc1c(C(=O)N2CCC(c3ccc(F)cc3)CC2)cn(Cc2noc(=O)[nH]2)c(=O)c1Cl [Compound 169, 3-({3-chloro-4-(5-chloro-2-methylphenylamino)-5-[4-(4-fluorophenyl)piperidine-1-carbonyl]-2-oxopyridin-1(2H)-yl}methyl)-1,2,4-oxadiazol-5(4H)-one]	≤ 1000
Cc1ccc(Cl)cc1Nc1c(C(=O)N2CCC(c3ccc(F)cc3)CC2)cn(C2CC2)c(=O)c1Cl [Compound 72, 3-chloro-4-(5-chloro-2-methylphenylamino)-1-cyclopropyl-5-[4-(4-fluorophenyl)piperidine-1-carbonyl]pyridin-2(1H)-one]	≤ 1000
Cc1cc(F)ccc1Nc1c(C(=O)N2CCC(c3ccc(F)cc3)CC2)cn(C)c(=O)c1Cl [Compound 39, 3-chloro-4-(4-fluoro-2-methylphenylamino)-5-[4-(4-fluorophenyl)piperidine-1-carbonyl]-1-methylpyridin-2(1H)-one]	≤ 1000
Cc1cc(F)ccc1Nc1c(C(=O)N2CCC(c3ccc(F)cc3)CC2)cn(C2CC2)c(=O)c1Br [Compound 94, 3-bromo-1-cyclopropyl-4-(4-fluoro-2-methylphenylamino)-5-[4-(4-fluorophenyl)piperidine-1-carbonyl]pyridin-2(1H)-one]	≤ 1000
Cn1cc(C(=O)N2CCC(c3ccc(F)cc3)CC2)c(Nc2cc(C(F)(F)F)ccc2C#N)c(Cl)c1=O [Compound 149, 2-{3-chloro-5-[4-(4-fluorophenyl)piperidine-1-carbonyl]-1-methyl-2-oxo-1,2-dihydropyridin-4-ylamino}-4-(trifluoromethyl)benzonitrile]	≤ 1000
COc1cc(Nc2c(C(=O)N3CCC(c4ccc(F)cc4)CC3)cn(C)c(=O)c2Cl)ccc1Cl [Compound 88, 3-chloro-4-(4-chloro-3-methoxyphenylamino)-5-[4-(4-fluorophenyl)piperidine-1-carbonyl]-1-methylpyridin-2(1H)-one]	≤ 1000
Cc1cc(C#N)ccc1Nc1c(C(=O)N2CCC(c3ccc(F)cc3)CC2)cn(C)c(=O)c1Cl [Compound 100, 4-{3-chloro-5-[4-(4-fluorophenyl)piperidine-1-carbonyl]-1-methyl-2-oxo-1,2-dihydropyridin-4-ylamino}-3-methylbenzonitrile]	≤ 1000
Cn1cc(C(=O)N2CCC(c3ccc(F)cc3)CC2)c(Nc2ccc3ncsc3c2)c(Cl)c1=O [Compound 173, 4-(benzo[d]thiazol-6-ylamino)-3-chloro-5-[4-(4-fluorophenyl)piperidine-1-carbonyl]-1-methylpyridin-2(1H)-one]	≤ 1000
COc1ccc(Nc2c(C(=O)N3CCC(c4ccc(F)cc4)CC3)cn(C)c(=O)c2Cl)c(F)c1 [Compound 69, 3-chloro-4-(2-fluoro-4-methoxyphenylamino)-5-[4-(4-fluorophenyl)piperidine-1-carbonyl]-1-methylpyridin-2(1H)-one]	≤ 1000
Cc1cc(Cl)ccc1Nc1c(C(=O)N2CCC(c3ccc(F)cc3)CC2)cn(CCF)c(=O)c1Cl [Compound 159, 3-chloro-4-(4-chloro-2-methylphenylamino)-1-(2-fluoroethyl)-5-[4-(4-fluorophenyl)piperidine-1-carbonyl]pyridin-2(1H)-one]	≤ 1000
Cc1cc(F)ccc1Nc1c(C(=O)N2CCC(c3ccc(F)cc3)CC2)cn(CCF)c(=O)c1Cl [Compound 158, 3-chloro-4-(4-fluoro-2-methylphenylamino)-1-(2-fluoroethyl)-5-[4-(4-fluorophenyl)piperidine-1-carbonyl]pyridin-2(1H)-one]	≤ 1000
Cn1cc(C(=O)N2CCC(c3ccc(F)cc3)CC2)c(Nc2cc(Cl)ccc2C#N)c(Cl)c1=O [Compound 103, 4-chloro-2-{3-chloro-5-[4-(4-fluorophenyl)piperidine-1-carbonyl]-1-methyl-2-oxo-1,2-dihydropyridin-4-ylamino}benzonitrile]	≤ 1000
Cn1cc(C(=O)N2CCC(c3ccc(F)cc3)CC2)c(NCc2ccc(Cl)cc2)c(Cl)c1=O [Compound 65, 3-chloro-4-(4-chlorobenzylamino)-5-[4-(4-fluorophenyl)piperidine-1-carbonyl]-1-methylpyridin-2(1H)-one]	≤ 1000
Cc1cc(C#N)ccc1Nc1c(C(=O)N2CCC(c3ccc(F)cc3)CC2)cn(C)c(=O)c1C [Compound 124, 4-{5-[4-(4-fluorophenyl)piperidine-1-carbonyl]-1,3-dimethyl-2-oxo-1,2-dihydropyridin-4-ylamino}-3-methylbenzonitrile]	≤ 1000
Cc1cc(COn2cc(C(=O)N3CCC(c4ccc(F)cc4)CC3)c(Nc3cc(Cl)ccc3C)c(Cl)c2=O)no1 [Compound 205, 3-chloro-4-(5-chloro-2-methylphenylamino)-5-[4-(4-fluorophenyl)piperidine-1-carbonyl]-1-[(5-methylisoxazol-3-yl)methoxy]pyridin-2(1H)-one]	≤ 1000
Cc1ccc(Cl)cc1Nc1c(C(=O)N2CCC(c3ccc(F)cc3)CC2)cn(C)c(=O)c1Cl [Compound 74, 3-chloro-4-(5-chloro-2-methylphenylamino)-5-[4-(4-fluorophenyl)piperidine-1-carbonyl]-1-methylpyridin-2(1H)-one]	≤ 1000
CN1C(=O)c2ccc(Nc3c(C(=O)N4CCC(c5ccc(F)cc5)CC4)cn(C)c(=O)c3Cl)cc2C1=O [Compound 171, 5-{3-chloro-5-[4-(4-fluorophenyl)piperidine-1-carbonyl]-1-methyl-2-oxo-1,2-dihydropyridin-4-ylamino}-2-methylisoindoline-1,3-dione]	≤ 1000
Cc1ccc(Cl)c(Nc2cc(=O)n(C/C(N)=N/O)cc2C(=O)N2CCC(c3ccc(F)cc3)CC2)c1 [Compound 13, (Z)-2-{4-(2-chloro-5-methylphenylamino)-5-[4-(4-fluorophenyl)piperidine-1-carbonyl]-2-oxopyridin-1(2H)-yl}-N′-hydroxyacetimidamide]	≤ 1000
Cc1ccc(Nc2c(C(=O)N3CCC(c4ccc(F)cc4)CC3)cn(OCCO)c(=O)c2C)cn1 [Compound 227, 5-[4-(4-fluorophenyl)piperidine-1-carbonyl]-1-(2-hydroxyethoxy)-3-methyl-4-(6-methylpyridin-3-ylamino)-pyridin-2(1H)-one]	≤ 1000
Cc1ccc(Cl)cc1Nc1c(C(=O)N2CCC(c3ccc(F)cc3)CC2)cn(OCC2CCCO2)c(=O)c1Cl (centres unmarked) [Compound 226, 3-chloro-4-(5-chloro-2-methylphenylamino)-5-[4-(4-fluorophenyl)piperidine-1-carbonyl]-1-[(tetrahydrofuran-2-yl)methoxy]pyridin-2(1H)-one]	≤ 1000
COc1ccc(OC)c(Nc2c(C(=O)N3CCC(c4ccc(F)cc4)CC3)cn(C3CC3)c(=O)c2Cl)c1 [Compound 60, 3-chloro-1-cyclopropyl-4-(2,5-dimethoxyphenylamino)-5-[4-(4-fluorophenyl)piperidine-1-carbonyl]pyridin-2(1H)-one]	≤ 1000
Cc1ccc(Cl)c(Nc2cc(=O)n(Cc3noc(C(C)(C)C)n3)cc2C(=O)N2CCC(c3ccc(F)cc3)CC2)c1 [Compound 14, 1-[(5-tert-butyl-1,2,4-oxadiazol-3-yl)methyl]-4-(2-chloro-5-methylphenylamino)-5-[4-(4-fluorophenyl)piperidine-1-carbonyl]pyridin-2(1H)-one]	≤ 1000
CCn1cc(C(=O)N2CCC(c3ccc(F)cc3)CC2)c(Nc2ccc(F)cc2C)c(Cl)c1=O [Compound 135, 3-chloro-1-ethyl-4-(4-fluoro-2-methylphenylamino)-5-[4-(4-fluorophenyl)piperidine-1-carbonyl]pyridin-2(1H)-one]	≤ 1000
COc1cc(Nc2c(C(=O)N3CCC(c4ccc(F)cc4)CC3)cn(C)c(=O)c2Cl)ccc1F [Compound 89, 3-chloro-4-(4-fluoro-3-methoxyphenylamino)-5-[4-(4-fluorophenyl)piperidine-1-carbonyl]-1-methylpyridin-2(1H)-one]	≤ 1000
CCNC(=O)Nc1c(Nc2ccc3ncsc3c2)c(C(=O)N2CCC(c3ccc(F)cc3)CC2)cn(C)c1=O [Compound 200, 1-{4-(benzo[d]thiazol-6-ylamino)-5-[4-(4-fluorophenyl)piperidine-1-carbonyl]-1-methyl-2-oxo-1,2-dihydropyridin-3-yl}-3-ethylurea]	≤ 1000
Cc1nnc(Cn2cc(C(=O)N3CCC(c4ccc(F)cc4)CC3)c(Nc3ccc(F)cc3F)c(Cl)c2=O)o1 [Compound 184, 3-chloro-4-(2,4-difluorophenylamino)-5-[4-(4-fluorophenyl)piperidine-1-carbonyl]-1-[(5-methyl-1,3,4-oxadiazol-2-yl)methyl]pyridin-2(1H)-one]	≤ 1000
O=C(c1cn(CCF)c(=O)c(Cl)c1Nc1ccc(F)cc1F)N1CCC(c2ccc(F)cc2)CC1 [Compound 162, 3-chloro-4-(2,4-difluorophenylamino)-1-(2-fluoroethyl)-5-[4-(4-fluorophenyl)piperidine-1-carbonyl]pyridin-2(1H)-one]	≤ 1000
